Measurements: US20260055163A1
Results are given in words; binding and its absence hold for the method and conditions named. Some results given as binding are weak or reduced against the parent protein; the word gives no strength.

The chains behind the UniProt entries cited, without tags or fusion partners. Where a name states a change or a piece, a line headed by the entry shows the natural chain unless it says otherwise.
UniProt P27037: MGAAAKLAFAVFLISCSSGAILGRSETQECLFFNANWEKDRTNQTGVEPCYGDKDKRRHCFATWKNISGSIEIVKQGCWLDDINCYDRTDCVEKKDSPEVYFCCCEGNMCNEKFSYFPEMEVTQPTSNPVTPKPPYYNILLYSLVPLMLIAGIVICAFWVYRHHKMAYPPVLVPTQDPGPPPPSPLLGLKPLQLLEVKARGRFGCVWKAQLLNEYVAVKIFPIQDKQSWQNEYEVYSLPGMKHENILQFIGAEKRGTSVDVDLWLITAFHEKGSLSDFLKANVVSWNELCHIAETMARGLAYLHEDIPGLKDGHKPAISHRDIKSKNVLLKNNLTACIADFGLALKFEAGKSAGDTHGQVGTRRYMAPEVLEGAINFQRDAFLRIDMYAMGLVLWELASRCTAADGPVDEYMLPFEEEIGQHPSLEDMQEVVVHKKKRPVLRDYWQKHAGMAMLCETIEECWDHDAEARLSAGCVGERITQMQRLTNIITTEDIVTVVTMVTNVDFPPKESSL

Columns and labels:
BMP10 = biological target: T1, BMP10 (UniProt O95393); test: similar binding assay (SPR, Biacore)
T1 sequence (looked up): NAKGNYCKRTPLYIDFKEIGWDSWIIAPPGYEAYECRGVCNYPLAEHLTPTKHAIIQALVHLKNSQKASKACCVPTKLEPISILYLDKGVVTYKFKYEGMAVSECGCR

activin B = biological target: T2, activin B (UniProt P09529); test: similar binding assay (SPR, Biacore)
T2 sequence (looked up): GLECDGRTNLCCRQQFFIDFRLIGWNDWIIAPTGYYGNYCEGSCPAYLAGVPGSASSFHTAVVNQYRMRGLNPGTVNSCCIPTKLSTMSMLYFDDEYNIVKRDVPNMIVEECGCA

GDF11 = biological target: T3, GDF11 (UniProt O95390); test: SPR (Biacore), GDF11 amine-coupled on CM5 chip
T3 sequence (looked up): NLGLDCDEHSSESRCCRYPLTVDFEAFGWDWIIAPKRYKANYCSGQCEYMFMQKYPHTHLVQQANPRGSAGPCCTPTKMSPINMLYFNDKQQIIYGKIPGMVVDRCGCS

Measured: binding

ActRIIA-mFc (from UniProt P27037 20-135) (Fc fusion)
binds: all assays above
